Measured values published in PubChem BioAssay AID328 (DTP/NCI, 2004).
The list is a part of this screen's results and no random one: it is rich in T/C values a quarter to a half above the control, in often repeated tests (any T/C) and in doses without a T/C. Further doses and runs are listed elsewhere. T/C: endpoint of the treated group in % of that of the vehicle group. Some doses have a count of surviving animals in place of a T/C: the source holds a T/C of zero for them, seemingly a mark for toxic or unscored doses. Some doses without a T/C left all or most animals alive at the check, yet need not have been tolerated: survival well below the control is almost never listed, so the zero probably covers shortened survival too. Survivors were counted at the toxicity check, usually on the fifth day, unless a day is given; later deaths do not show. Schedules are NCI's codes, taken here to give the interval after Q, in days (D) or hours (H), and the number of doses after X. Where survival is the endpoint, this PubChem deposit counts one and a half times the control or more as active, and values a quarter to a half above the control carry no call in these data; other NCI protocols may use other cut-offs. Some T/C values carry the count of animals alive at the toxicity check (mostly the fifth day); without a count, all were alive then.

Tested on: BDF1 mice, P388 leukemia ip, median survival T/C
Test: NCI In Vivo Anticancer Drug Screen. Data for tumor model P388 Leukemia (intraperitoneal) in B6D2F1 (BDF1) mice
Settings: T/C endpoint: median survival time, higher T/C = longer survival
Summary of the method: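 In tumour-bearing mice, survival after compound treatment is set against the vehicle group and given as a quotient.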

[1] = dose: 200.0 mg/kg/injection, schedule: Q01DX009 (ip), vehicle: saline with Tween-80
[2] = dose: 50.0 mg/kg/injection, schedule: Q01DX009 (ip), vehicle: saline with Tween-80
[3] = dose: 100.0 mg/kg/injection, schedule: Q01DX009 (ip), vehicle: saline with Tween-80
[4] = dose: 200.0 mg/kg/injection, schedule: Q04DX003 (ip), vehicle: saline with Tween-80
[5] = dose: 400.0 mg/kg/injection, schedule: Q04DX003 (ip), vehicle: saline with Tween-80
[6] = dose: 25.0 mg/kg/injection, schedule: Q01DX009 (ip), vehicle: saline with Tween-80
[7] = dose: 100.0 mg/kg/injection, schedule: Q01DX009 (ip), vehicle: saline
[8] = dose: 3.0 mg/kg/injection, schedule: Q01DX010 (ip), vehicle: saline
[9] = dose: 400.0 mg/kg/injection, schedule: Q01DX009 (ip), vehicle: saline with Tween-80
[10] = dose: 200.0 mg/kg/injection, schedule: Q01DX009 (ip), vehicle: Klucel (hydroxypropylcellulose) (HPC)

`CC(=O)c1ccc(C(=O)CC(O)(C(F)(F)F)C(F)(F)F)cc1` was tested, and the survivor count (dose: 200.0 mg/kg/injection, schedule: Q01DX009 (ip), vehicle: other) was 5 of 6 and the survivor count (dose: 200.0 mg/kg/injection, schedule: Q04DX003 (ip), vehicle: other) was 3 of 6.
For `CCCCN(CCCC)CCC(O)c1cc(-c2ccc(Cl)c(Cl)c2)nc2c(Cl)cc(Cl)cc12` (stereo unspecified), the survivor count [1] was 5 of 6.
For `C/C(=N\NC(=S)N1CCC1)c1ccccn1`, the survivor count [2] was 2 of 6, the survivor count [3] was 2 of 6 and the survivor count [1] was 0 of 6.
With `C[N+](C)(Cn1ncc2ccc([N+](=O)[O-])cc21)Cn1ncc2ccc([N+](=O)[O-])cc21` the survivor count [4] was 4 of 6 and the survivor count [5] was 0 of 6.
`O=c1cc(CCl)[nH]nc1CCl` was tested, and the T/C (dose: 10.0 mg/kg/injection, schedule: Q04DX003 (ip), vehicle: saline with Tween-80) was 142 % of control and the T/C (dose: 50.0 mg/kg/injection, schedule: Q04DX003 (ip), vehicle: saline with Tween-80) was 136 % of control.
With `O=C(C=C(C(F)(F)F)C(F)(F)F)c1ccco1` the survivor count [6] was 0 of 6.
`Nc1cc(Nc2cccc(Cl)c2)nc(N)n1` was tested, and the survivor count [6] was 3 of 6 and the survivor count [3] was 3 of 6.
With `CCCCN(C)c1ncnc2[nH]ncc12` the survivor count [7] was 6 of 6.
`CC[N+](CC)(CC)CC.N#C/C([SH2+])=C(/[SH2+])C#N.N#C/C([SH2+])=C(/[SH2+])C#N.[Fe+2]` was tested, and the survivor count (dose: 9.2 mg/kg/injection, schedule: Q01DX009 (ip), vehicle: saline with Tween-80) was 3 of 6, the survivor count (dose: 14.0 mg/kg/injection, schedule: Q01DX001 (ip), vehicle: saline with Tween-80) was 3 of 6 and the survivor count (dose: 14.0 mg/kg/injection, schedule: Q01DX009 (ip), vehicle: saline with Tween-80) was 1 of 6. For the same molecule, the survivor count (dose: 21.0 mg/kg/injection, schedule: Q01DX009 (ip), vehicle: saline with Tween-80) was 0 of 6 and the survivor count (dose: 21.0 mg/kg/injection, schedule: Q04DX003 (ip), vehicle: saline with Tween-80) was 4 of 6.
For `Cc1c(-c2ccc(C(=N)N)cc2)oc(-c2ccc(C(=N)N)cc2)c1C`, the T/C (dose: 6.25 mg/kg/injection, schedule: Q01DX009 (ip), vehicle: saline with Tween-80) was 127 % of control, the T/C (dose: 12.5 mg/kg/injection, schedule: Q01DX009 (ip), vehicle: saline with Tween-80) was 130 % of control and the survivor count [6] was 6 of 6. For the same molecule, the survivor count [2] was 0 of 6, the survivor count [3] was 0 of 6 and the survivor count [1] was 0 of 6.
For `COc1ccc(OC)c(NC=O)c1`, the T/C [2] was 130 % of control.
In the case of `COc1ncnc2c1c(C#N)cn2C1OC(CO)C(O)C1O` (stereo unspecified), the survivor count [7] is reported as 1 of 6.
For `CC(=O)c1cccc(NC2C(N)C(NC(=O)N(C)C)(C(C)O)C(C)(O)C2(O)COC(=O)c2c(C)cccc2O)c1` (stereo unspecified), the T/C (dose: 0.38 mg/kg/injection, schedule: Q01DX010 (ip), vehicle: saline) was 136 % of control, the T/C (dose: 0.75 mg/kg/injection, schedule: Q01DX010 (ip), vehicle: saline) was 136 % of control and the T/C (dose: 1.5 mg/kg/injection, schedule: Q01DX010 (ip), vehicle: saline) was 140 % of control. The T/C [8] was 145 % of control, the survivor count [8] was 0 of 6 and the T/C (dose: 5.18 mg/kg/injection, schedule: Q04DX003 (ip), vehicle: alkali diluted with saline) was 146 % of control. For the same molecule, the survivor count (dose: 6.0 mg/kg/injection, schedule: Q01DX010 (ip), vehicle: saline) was 0 of 6, the survivor count (dose: 12.0 mg/kg/injection, schedule: Q01DX010 (ip), vehicle: saline) was 0 of 6 and the T/C (dose: 14.4 mg/kg/injection, schedule: Q04DX003 (ip), vehicle: alkali diluted with saline) was 149 % of control. For the same molecule, the T/C (dose: 15.0 mg/kg/injection, schedule: Q04DX003 (ip), vehicle: alkali diluted with saline) was 130 % of control [7 of 8 alive], the survivor count (dose: 18.0 mg/kg/injection, schedule: Q04DX003 (ip), vehicle: alkali diluted with saline) was 5 of 8 and the survivor count (dose: 24.0 mg/kg/injection, schedule: Q04DX003 (ip), vehicle: alkali diluted with saline) was 4 of 8. The survivor count (dose: 25.0 mg/kg/injection, schedule: Q04DX003 (ip), vehicle: alkali diluted with saline) was 1 of 8 and the survivor count (dose: 30.0 mg/kg/injection, schedule: Q04DX003 (ip), vehicle: alkali diluted with saline) was 1 of 8.
With `CC=C(/C(=C/C)c1ccc(O)cc1)c1ccc(O)cc1` the T/C [3] was 136 % of control, the T/C [1] was 136 % of control [5 of 6 alive] and the T/C [9] was 127 % of control.
`CCCCCC#CC1OC12CCCCC2` (stereo unspecified) was tested, and the T/C [3] was 133 % of control, the T/C [1] was 128 % of control and the survivor count (dose: 300.0 mg/kg/injection, schedule: Q01DX009 (ip), vehicle: saline with Tween-80) was 5 of 6.
For `c1ccc(-n2nc3c(c2OCCN2CCCC2)CCCc2ccccc2-3)cc1`, the survivor count (dose: 150.0 mg/kg/injection, schedule: Q04DX003 (ip), vehicle: saline with Tween-80) was 3 of 6, the survivor count [4] was 0 of 6 and the survivor count [5] was 0 of 6.
In the case of `Cc1ccc(C)c(C(=O)CCC(=O)O)c1`, the survivor count [2] is reported as 6 of 6, the survivor count (dose: 100.0 mg/kg/injection, schedule: Q04DX003 (ip), vehicle: saline with Tween-80) is reported as 6 of 6 and the survivor count [9] is reported as 3 of 6.
In the case of `C[C@]12CC[C@@H]3c4ccc(O)cc4CC[C@H]3[C@@H]1CC[C@@H]2O`, the survivor count [10] is reported as 6 of 6.
For `CCN(CC)C(=O)Cn1cc(F)c(N)nc1=O`, the survivor count (dose: 400.0 mg/kg/injection, schedule: Q01DX009 (ip), vehicle: saline) was 4 of 6.
In the case of `Oc1c(Cl)cc(Cl)cc1C1N2CCCCC2C2c3cccn3-c3ccccc3N21` (stereo unspecified), the survivor count [10] is reported as 6 of 6.
